The other results are listed elsewhere or left out. The data scatter; read single values as rough.
System: Candida albicans SN425
Test: biofilm OD600 B-score; higher = more biofilm (less inhibition)
Conditions: 10 µM; assay detail: High-throughput adherence inhibition optical density biofilm assay with C. albicans SN425 in RPMI-1640/MOPS pH 7.0, 384-well plates. …
Procedure: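 High-throughput adherence inhibition optical density biofilm assay with C. albicans SN425 in RPMI-1640/MOPS pH 7.0, 384-well plates. Compound (10 µM) was present only during the 90 min adherence step, then washed out, and the biofilm grew 24 h without compound. Biofilm was read as OD600 after removing the media. Scores are the difference from the mean in standard deviations and the plate B-score.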

Structure (SMILES)	biofilm OD600 B-score
CCc1ccc(N(CC(=O)N2CCOCC2)S(C)(=O)=O)cc1	0.236
O=S(=O)(NCc1ccco1)c1cccs1	-1.4
COC(=O)Nc1ccc(OCC(=O)N2CCOCC2)cc1	-0.543
c1ccc(-c2csc(NCc3ccco3)n2)nc1	-2.28
CCc1cccc(NC(=O)NC2CCCCC2)c1	1.52
O=C(O)C1CCCCC1C(=O)N1CCCC1 (stereo not given)	1.54
O=C(NC1CCCCC1)N1CCN(c2ccccc2F)CC1	2.39
NS(=O)(=O)c1ccc(Oc2ccccc2)cc1	0.558
O=C(NC1CCCCCC1)c1cnccn1	-3.19
Cc1cc(C(=O)Nc2ccc3c(c2)OCCO3)co1	-1.96
Cc1cc(C)nc(SCCN2CCCC2)n1	-0.0262
Cc1onc(-c2ccccc2)c1C(=O)Nc1cccnc1	-1.62
CCN(CC)c1ccc(-c2nocc2C#N)cc1	0.962
OC1CCN(Cc2ccc(Br)cc2)CC1	-0.608
CN(C)CCOc1ccccc1C(C)(C)C	0.893
CC1CCCC(NC2CCN(Cc3ccccc3)CC2)C1 (stereo not given)	4.75
COc1ccc(C)cc1NC(=O)NC1CCCCC1	-0.678
Cc1ncn(C23CC4CC(CC(C4)C2)C3)n1	0.735
COc1ccc(OCCN(C)Cc2ccccc2)cc1	2.66
COc1ccc(S(=O)(=O)NC2CCCCCC2)cc1OC	0.678

Reformatted comma-delimited: entries from further up.
Structure (SMILES),biofilm OD600 B-score
CCc1cccc(NC(=O)NC2CCCCC2)c1,1.52
O=C(O)C1CCCCC1C(=O)N1CCCC1 (stereo not given),1.54
O=C(NC1CCCCC1)N1CCN(c2ccccc2F)CC1,2.39

Carrying on:

Structure (SMILES)	biofilm OD600 B-score
Cc1ccccc1CSc1nnc(NC(=O)Nc2ccccc2F)s1	-0.0254
O=C(NCCCN1CCCC1)c1ccc(F)cc1	0.00801
COc1ccc(Cl)cc1S(=O)(=O)Nc1ccccc1C(=O)O	-1.17
CS(=O)(=O)NCCC1=CCCCC1	-1.48
COCC(=O)Nc1ccc(S(N)(=O)=O)cc1	-0.028
CC(C)(C)c1ccc(C(=O)Nc2ccc(C(=O)O)cc2)o1	0.13
Cc1cccc(CN(C)CCN(C)C)c1	0.0821
C=CCN(CC=C)C(=O)Nc1cccc(Cl)c1	-0.288
Cc1cc(Br)ccc1OCC(=O)NCC1CCCO1 (stereo not given)	-1.27
Cc1ccc(NC(=O)CSc2nc(C)cc(=O)[nH]2)c(C)c1	0.454
Cc1ccc(Nc2ccc(C(=O)O)cc2N)cc1	-0.996
O=C(c1ccc(S(=O)(=O)N2CCCC2)cc1)N1CCCCC1	0.247
CC(=O)c1cccc(NC(=O)CN2C(=O)C3C4CCC(C4)C3C2=O)c1 (stereo not given)	-2.64
NS(=O)(=O)c1ccc(CNC(=O)CSc2ccccc2)cc1	-3.34
COc1ccc2c(CC#N)c[nH]c2c1	-1.28
N#Cc1nc(-c2ccccc2)cc(-c2ccccc2)n1	0.869
CCOc1ccccc1OCCN1CC(C)CC(C)C1 (stereo not given)	1.17
COc1ccc(NC(=O)Nc2ccc(F)c(Cl)c2)cc1	2.31
COc1ccc(NCCNc2ccc(OC)cc2)cc1	-0.53
Cc1ccsc1CN(C)C1CCN(C)CC1	0.456

— the supplement of paper PMC7824004
